# Experimental data: PubChem BioAssay AID1224829 (NIAID, 2016)
# Screen: 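Follow-up of TLR4-NF-kappaB regulators using six separate siRNAs for each gene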 (follow-up of hits)
# Cells: mouse RAW264.7 G9 macrophage reporter cells
# Knock-down reagent: single siRNA against mouse genes, 100 nM
# Time to read-out: 2 days of siRNA knock-down, then 40 min of LPS before fixing
# Challenge: LPS (Salmonella minnesota R595) at 10 ng/ml
# Detection: 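High-content images after 40 min LPS exposure; GFP-p65 nucleus to surrounding ring signal ratio, normalised to plate median and non-targeting control wells, expressed as z-score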
# Direction: p65 translocation z-score and gene median z-score, per vendor: higher = more nuclear NF-kappaB p65 after LPS
# Active means: 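Active means the replicate-mean z-score lies beyond plus or minus 2, in either direction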
# Calls: active = changed p65 translocation (either direction); inactive = no clear change
# The deposit covers about 3,800 reagents; this is an unselected part. 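Calls cover raised and lowered translocation; gene median uses one vendor's three siRNAs; qiagen siRNAs acted more weakly than ambion siRNAs.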 Entries without a mark were called inactive. The numbers tell different reagents against one gene apart.
gene knocked down,siRNA no.,siRNA vendor or control pool,"p65 translocation z-score, replicate mean","p65 translocation z-score, replicate 1","p65 translocation z-score, replicate 2","gene median z-score, per vendor"
Or10q12 (olfactory receptor family 10 subfamily Q member 12),1,ambion single siRNA,0.806,-0.261,1.87,-0.763
Or10q12 (olfactory receptor family 10 subfamily Q member 12),2,ambion single siRNA,-1.95,-2.66,-1.23,-0.763
Or10q12 (olfactory receptor family 10 subfamily Q member 12),3,ambion single siRNA,-1.36,-2.43,-0.3,-0.763
Or10q12 (olfactory receptor family 10 subfamily Q member 12),4,qiagen single siRNA,0.194,-0.601,0.989,0.031
Or10q12 (olfactory receptor family 10 subfamily Q member 12),5,qiagen single siRNA,0.531,0.354,0.708,0.031
Or10q12 (olfactory receptor family 10 subfamily Q member 12),6,qiagen single siRNA,-0.757,-0.292,-1.22,0.031
Tbck (TBC1 domain containing kinase),1,ambion single siRNA,-0.625,0.133,-1.38,-0.971
Tbck (TBC1 domain containing kinase),2,ambion single siRNA,-0.504,-0.449,-0.559,-0.971
Tbck (TBC1 domain containing kinase),3,ambion single siRNA,-2.29 (active),-2.76,-1.81,-0.971

Continued; the last 2 above are carried over.
gene knocked down,siRNA no.,siRNA vendor or control pool,"p65 translocation z-score, replicate mean","p65 translocation z-score, replicate 1","p65 translocation z-score, replicate 2","gene median z-score, per vendor"
Tbck (TBC1 domain containing kinase),2,ambion single siRNA,-0.504,-0.449,-0.559,-0.971
Tbck (TBC1 domain containing kinase),3,ambion single siRNA,-2.29 (active),-2.76,-1.81,-0.971
Krt71 (keratin 71),1,ambion single siRNA,-3.68 (active),-3.68,,-3.73
Krt71 (keratin 71),2,ambion single siRNA,-4.14 (active),-4.5,-3.77,-3.73
Krt71 (keratin 71),3,ambion single siRNA,-2.15 (active),-2.15,,-3.73
Krt71 (keratin 71),4,qiagen single siRNA,2.48 (active),1.26,3.7,0.507
Krt71 (keratin 71),5,qiagen single siRNA,-0.939,-1.53,-0.343,0.507
Krt71 (keratin 71),6,qiagen single siRNA,1.33,-0.247,2.9,0.507
Dixdc1 (DIX domain containing 1),1,ambion single siRNA,-4.73 (active),-4.98,-4.49,-3.24
Dixdc1 (DIX domain containing 1),2,ambion single siRNA,-1.8,-0.7,-2.9,-3.24
Dixdc1 (DIX domain containing 1),3,ambion single siRNA,-2.26 (active),-0.93,-3.58,-3.24
Dixdc1 (DIX domain containing 1),4,qiagen single siRNA,1.42,1.55,1.29,1.74
Dixdc1 (DIX domain containing 1),5,qiagen single siRNA,1.75,1.61,1.9,1.74
Dixdc1 (DIX domain containing 1),6,qiagen single siRNA,2.19 (active),2.51,1.87,1.74
